From article PMC10589240
No constants are given. Whether binding was seen depends on the method and setting. In cells and extracts the contact can be indirect. Some binding calls cover weakened binding; strength is not graded here.

T1: SMAD4, endogenous (human (endogenous in HCT116, HEK293T and HepG2)), Q13485
T1 chain: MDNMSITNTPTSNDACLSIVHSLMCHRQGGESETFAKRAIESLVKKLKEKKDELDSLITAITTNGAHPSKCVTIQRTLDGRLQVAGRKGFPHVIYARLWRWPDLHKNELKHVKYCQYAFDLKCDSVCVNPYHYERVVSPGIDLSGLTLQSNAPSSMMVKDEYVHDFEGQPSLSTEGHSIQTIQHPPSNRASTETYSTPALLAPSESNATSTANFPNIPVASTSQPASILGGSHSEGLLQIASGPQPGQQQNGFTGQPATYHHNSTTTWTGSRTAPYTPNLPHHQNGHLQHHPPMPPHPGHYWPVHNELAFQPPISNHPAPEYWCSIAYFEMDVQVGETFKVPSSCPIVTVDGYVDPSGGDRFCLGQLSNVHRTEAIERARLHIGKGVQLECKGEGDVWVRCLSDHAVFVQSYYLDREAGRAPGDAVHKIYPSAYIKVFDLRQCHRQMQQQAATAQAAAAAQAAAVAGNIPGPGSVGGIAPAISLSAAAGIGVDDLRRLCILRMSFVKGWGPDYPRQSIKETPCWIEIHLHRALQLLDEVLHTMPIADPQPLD


Target: T1, SMAD4, endogenous (human (endogenous in …))
Experiment: co-IP; IP of the SMAD4/R-SMAD complex from HepG2 cells stably expressing shNT or shTRIP12, treated with TGFβ; Western blot
Conditions: remark: other sources report otherwise

binding	Binder
binds	SMAD2, endogenous, Q15796 1-467 (protein) MSSILPFTPPVVKRLLGWKKSAGGSGGAGGGEQNGQEEKWCEKAVKSLVKKLKKTGRLDELEKAITTQNCNTKCVTIPSTCSEIWGLSTPNTIDQWDTTGLYSFSEQTRSLDGRLQVSHRKGLPHVIYCRLWRWPDLHSHHELKAIENCEYAFNLKKDEVCVNPYHYQRVETPVLPPVLVPRHTEILTELPPLDDYTHSIPENTNFPAGIEPQSNYIPETPPPGYISEDGETSDQQLNQSMDTGSPAELSPTTLSPVNHSLDLQPVTYSEPAFWCSIAYYELNQRVGETFHASQPSLTVDGFTDPSNSERFCLGLLSNVNRNATVEMTRRHIGRGVRLYYIGGEVFAECLSDSAIFVQSPNCNQRYGWHPATVCKIPPGCNLKIFNNQEFAALLAQSVNQGFEAVYQLTRMCTIRMSFVKGWGAEYRRQTVTSTPCWIELHLNGPLQWLDKVLTQMGSPSVRCSSMS
binds	SMAD3, endogenous, P84022 1-425 (protein) MSSILPFTPPIVKRLLGWKKGEQNGQEEKWCEKAVKSLVKKLKKTGQLDELEKAITTQNVNTKCITIPRSLDGRLQVSHRKGLPHVIYCRLWRWPDLHSHHELRAMELCEFAFNMKKDEVCVNPYHYQRVETPVLPPVLVPRHTEIPAEFPPLDDYSHSIPENTNFPAGIEPQSNIPETPPPGYLSEDGETSDHQMNHSMDAGSPNLSPNPMSPAHNNLDLQPVTYCEPAFWCSISYYELNQRVGETFHASQPSMTVDGFTDPSNSERFCLGLLSNVNRNAAVELTRRHIGRGVRLYYIGGEVFAECLSDSAIFVQSPNCNQRYGWHPATVCKIPPGCNLKIFNNQEFAALLAQSVNQGFEAVYQLTRMCTIRMSFVKGWGAEYRRQTVTSTPCWIELHLNGPLQWLDKVLTQMGSPSIRCSSVS
